Measured values published in US20090111753A1, “Nogo-A Polypeptide Fragments, Variant Nogo Receptor-1 Polypeptides, and Uses Thereof” (Yale University, priority 2004, published 2009).
Numbering of substitutions follows the chain as printed.

B1: 108, 131: human NgR1 mutant, listed residues mutated to alanine (protein)
chain: CPGACVCYNEPKVTTSCPQQGLQAVPVGIPAASQRIFLHGNRISHVPAASFRACRNLTILWLHSNVLARIDAAAFTGLALLAQLDLSDNAQLRSVDPATFHGLGALHTLHLDRCGLQELGPGLFRGLAALQYLYLQDNALQALPDDTFRDLGNLTHLFLHGNRISSVPERAFRGLHSLDRLLLHQNRVAHVHPHAFRDLGRLMTLYLFANNLSALPTEALAPLRALQYLRLNDNPWVCDCRARPLWAWLQKFRGSSSEVPCSLPQRLAGRDLKRLAANDLQGCAVATGPYHPIWTGRATDEEPLGLPKCCQPDAADKASVLEPGRPASAGNALKGRVPPGDSPPGNGSGPRHINDSPFGTLPGSAEPPLTAVRPEGSEPPGFPTSGPRRRPGCSRKNRTRSHCRLGQAGSGGGGTGDSEGSGALPSLTCSLTPLGLALVLWTVLGPC
B2: 256, 259: human NgR1 mutant, listed residues mutated to alanine (protein)
chain: B1 chain with A82E, A105R, R230A, D233A
B3: 237, 256, 259: human NgR1 mutant, listed residues mutated to alanine (protein)
chain: B1 chain with A82E, A105R, N211A, R230A, D233A
B4: 220, 223, 224: human NgR1 mutant, listed residues mutated to alanine (protein)
chain: B1 chain with A82E, A105R, H194A, R197A, D198A
B5: 237, 256, 284: human NgR1 mutant, listed residues mutated to alanine (protein)
chain: B1 chain with A82E, A105R, N211A, R230A, E258A
B6: 114, 117, 139: human NgR1 mutant, listed residues mutated to alanine (protein)
chain: B1 chain with A82E, D88A, Q91A, A105R, R113A
B7: 87, 89: human NgR1 mutant, listed residues mutated to alanine (protein)
chain: B1 chain with W61A, H63A, A82E, A105R
B8: human NgR1 alanine mutant 211, 213, 237, 256, 259, 284 (receptor)
chain: B1 chain with A82E, A105R, Q185A, R187A, N211A, R230A, D233A, E258A
B9: 95, 97: human NgR1 mutant, listed residues mutated to alanine (protein)
chain: B1 chain with R69A, D71A, A82E, A105R
B10: 36, 38, 61: human NgR1 mutant, listed residues mutated to alanine (protein)
chain: B1 chain with E10A, K12A, R35A, A82E, A105R
B11: 256, 259, 284: human NgR1 mutant, listed residues mutated to alanine (protein)
chain: B1 chain with A82E, A105R, R230A, D233A, E258A
B12: 89, 90: human NgR1 mutant, listed residues mutated to alanine (protein)
chain: B1 chain with H63A, S64A, A82E, A105R
B13: 78, 81: human NgR1 mutant, listed residues mutated to alanine (protein)
chain: B1 chain with R52A, R55A, A82E, A105R
B14: 216, 218, 220: human NgR1 mutant, listed residues mutated to alanine (protein)
chain: B1 chain with A82E, A105R, H190A, H192A, H194A
B15: 95, 97, 122: human NgR1 mutant, listed residues mutated to alanine (protein)
chain: B1 chain with R69A, D71A, A82E, D96A, A105R
B16: 63, 65, 87, 89: human NgR1 mutant, listed residues mutated to alanine (protein)
chain: B1 chain with F37A, H39A, W61A, H63A, A82E, A105R
B17: 117, 119, 120: human NgR1 mutant, listed residues mutated to alanine (protein)
chain: B1 chain with A82E, Q91A, R93A, S94A, A105R
B18: 61, 108, 131: human NgR1 mutant, listed residues mutated to alanine (protein)
chain: B1 chain with R35A
B19: human NgR1 alanine mutant 189, 191, 211, 213, 237, 256, 259, 284 (receptor)
chain: B1 chain with A82E, A105R, R163A, S165A, Q185A, R187A, N211A, R230A, D233A, E258A
B20: WT: wild type human NgR1 expressed in COS-7 cells (protein, UniProt Q9BZR6 27-447, looked up)
Reticulon-4 receptor: CPGACVCYNEPKVTTSCPQQGLQAVPVGIPAASQRIFLHGNRISHVPAASFRACRNLTILWLHSNVLARIDAAAFTGLALLEQLDLSDNAQLRSVDPATFHGLGRLHTLHLDRCGLQELGPGLFRGLAALQYLYLQDNALQALPDDTFRDLGNLTHLFLHGNRISSVPERAFRGLHSLDRLLLHQNRVAHVHPHAFRDLGRLMTLYLFANNLSALPTEALAPLRALQYLRLNDNPWVCDCRARPLWAWLQKFRGSSSEVPCSLPQRLAGRDLKRLAANDLQGCAVATGPYHPIWTGRATDEEPLGLPKCCQPDAADKASVLEPGRPASAGNALKGRVPPGDSPPGNGSGPRHINDSPFGTLPGSAEPPLTAVRPEGSEPPGFPTSGPRRRPGCSRKNRTRSHCRLGQAGSGGGGTGDSEGS

Test: SDS-PAGE and blot of NgR mutants with anti-NgR antibodies
Parameters: key: Mutants with expression level similar to WT NgR were labeled as “y”
Settings: whole cell lysate of COS-7 cells expressing NgR mutants

NgR band Western, y:
B1
B2
B3
B4
B5
B6
B7
B8
B9
B10
B11
B12
B13
B14
B15
B16
B17
B18
B19
B20
